Results published in patent US8501683B2 (priority 2008, dated 2013).

Experiment: general procedure: hybrid (solid and solution phase) peptide synthesis; HATU
Details: cyclisation step

cyclo([MeBmt][Abu][dNMeA][NMeV]L[NMeL]G[dHiv][NMeL]L[NMeV])
final purity (method not given): 99.38%

Square brackets hold non-standard residues; d marks the D form. MeBmt = C/C=C/C[C@@H](C)[C@@H](O)[C@H](NC)C(=O)O; NMeL = CN[C@@H](CC(C)C)C(=O)O; NMeV = CN[C@H](C(=O)O)C(C)C; dHiv = CC(C)[C@@H](O)C(=O)O; dNMeA = CN[C@H](C)C(=O)O; Abu = CC[C@H](N)C(=O)O
